# The other results are listed elsewhere or left out.
# B1: Epa8 (Candida glabrata) (protein)
# chain: MGSSHHHHHHSSGLVPRGSHMASSRALSDYPLGCSPLLGTKLTPGLSMELYEYPLDNHGIGPHCWDPAYLNPEYPRTGFESHKLIGTAQNVMSLNFEHRTQDCHVEFSNLPASFNFPDQITLTNFTMLLYGYFKPKESGRYRFHMEADDLLLMNLGAGNAFDCCAHEATRNNLGDYIAYDIWAGTRKDVEVFLEKEVFYPLRLFFNNRDGRAALDFSYYLNGATEPGTDIPELLFSLPDGESCPAYI
# How the values were obtained:
# Assay in all cases: glycan array binding signal (z-score within array); higher = stronger binding
# Conditions in all cases: glycan notation: IUPAC condensed, linker removed
# [1] = molecular target: Gal(b1-3)GlcNAc(b1-3)Gal(b1-4)GlcNAc(b1-2)Man(a1-3)[Gal(b1-3)GlcNAc(b1-3)Gal(b1-4)GlcNAc(b1-2)Man(a1-6)]Man(b1-4)GlcNAc(b1-4)GlcNAc
# Method in brief: (§1)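 Glycan array data were curated from 3228 arrays in the Consortium for Functional Glycomics database and kept only where the protein sequence was available. Glycan names were converted to IUPAC-condensed notation, and columns mapping to the same glycan were averaged. The binding signal is a within-array Z-score, averaged across arrays of the same protein sequence at different concentrations or buffers and across linkers. Negative Z-scores can be read as non-binding.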
# [2] = molecular target: Gal(b1-3)GlcNAc(b1-3)Gal(b1-4)GlcNAc(b1-2)[Gal(b1-3)GlcNAc(b1-3)Gal(b1-4)GlcNAc(b1-6)]Man(a1-6)[Gal(b1-3)GlcNAc(b1-3)Gal(b1-4)GlcNAc(b1-2)Man(a1-3)]Man(b1-4)GlcNAc(b1-4)[Fuc(a1-6)]GlcNAc
# Method in brief: as §1
# [3] = molecular target: Gal(b1-3)GlcNAc(b1-3)Gal(b1-4)GlcNAc(b1-3)Gal(b1-4)GlcNAc(b1-2)[Gal(b1-3)GlcNAc(b1-3)Gal(b1-4)GlcNAc(b1-3)Gal(b1-4)GlcNAc(b1-6)]Man(a1-6)[Gal(b1-3)GlcNAc(b1-3)Gal(b1-4)GlcNAc(b1-3)Gal(b1-4)GlcNAc(b1-2)Man(a1-3)]Man(b1-4)GlcNAc(b1-4)[Fuc(a1-6)]GlcNAc
# Method in brief: as §1
# [4] = molecular target: Gal(b1-3)GlcNAc(b1-3)Gal(b1-4)GlcNAc(b1-6)[Gal(b1-3)GlcNAc(b1-3)]Gal(b1-4)Glc
# Method in brief: as §1
# [5] = molecular target: Gal(b1-3)GlcNAc(b1-3)Gal(b1-4)[Fuc(a1-3)]GlcNAc
# Method in brief: as §1
# [6] = molecular target: Gal(b1-3)GlcNAc(b1-3)Gal(b1-4)[Fuc(a1-3)]GlcNAc(b1-6)[Gal(b1-3)GlcNAc(b1-3)]Gal(b1-4)Glc
# Method in brief: as §1
# [7] = molecular target: Gal(b1-3)GlcNAc(b1-3)GalNAc
# Method in brief: as §1
# [8] = molecular target: Gal(b1-3)GlcNAc(b1-6)Gal(b1-4)GlcNAc
# Method in brief: as §1
# [9] = molecular target: Gal(b1-3)GlcNAc(b1-6)GalNAc
# Method in brief: as §1
# [10] = molecular target: Gal(b1-3)GlcNAc(b1-6)[Gal(b1-3)]GalNAc
# Method in brief: as §1
# Gal(b1-3)GlcNAc6S = molecular target: Gal(b1-3)GlcNAc6S
# Method in brief: as §1
# [11] = molecular target: Gal(b1-3)[Fuc(a1-4)]GlcNAc
# Method in brief: as §1
# [12] = molecular target: Gal(b1-3)[Fuc(a1-4)]GlcNAc(b1-2)Man
# Method in brief: as §1
# [13] = molecular target: Gal(b1-3)[Fuc(a1-4)]GlcNAc(b1-2)Man(a1-3)[Gal(b1-3)[Fuc(a1-4)]GlcNAc(b1-2)Man(a1-6)]Man(b1-4)GlcNAc(b1-4)[Fuc(a1-6)]GlcNAc
# Method in brief: as §1
# [14] = molecular target: Gal(b1-3)[Fuc(a1-4)]GlcNAc(b1-3)Gal(b1-3)[Fuc(a1-4)]GlcNAc
# Method in brief: as §1
# [15] = molecular target: Gal(b1-3)[Fuc(a1-4)]GlcNAc(b1-3)Gal(b1-4)[Fuc(a1-3)]GlcNAc
# Method in brief: as §1
# [16] = molecular target: Gal(b1-3)[Fuc(a1-4)]GlcNAc(b1-6)GalNAc
# Method in brief: as §1
# [17] = molecular target: Gal(b1-3)[GlcNAc(b1-6)]GalNAc
# Method in brief: as §1
# [18] = molecular target: Gal(b1-3)[Neu5Ac(a2-6)]GalNAc
# Method in brief: as §1
# [19] = molecular target: Gal(b1-3)[Neu5Ac(a2-6)]GlcNAc(b1-4)Gal(b1-4)Glc
# Method in brief: as §1
# [20] = molecular target: Gal(b1-3)[Neu5Ac(b2-6)]GalNAc
# Method in brief: as §1
# Gal(b1-4)Gal = molecular target: Gal(b1-4)Gal
# Method in brief: as §1
# [21] = molecular target: Gal(b1-4)GalNAc(a1-3)[Fuc(a1-2)]Gal(b1-4)GlcNAc
# Method in brief: as §1
# [22] = molecular target: Gal(b1-4)GalNAc(b1-3)[Fuc(a1-2)]Gal(b1-4)GlcNAc
# Method in brief: as §1
# Gal(b1-4)Glc = molecular target: Gal(b1-4)Glc
# Method in brief: as §1
# Gal(b1-4)Glc6S = molecular target: Gal(b1-4)Glc6S
# Method in brief: as §1
# Gal(b1-4)GlcNAc = molecular target: Gal(b1-4)GlcNAc
# Method in brief: as §1
# [23] = molecular target: Gal(b1-4)GlcNAc(a1-6)Gal(b1-4)GlcNAc
# Method in brief: as §1
# Gal(b1-4)GlcNAc(b1-2)Man = molecular target: Gal(b1-4)GlcNAc(b1-2)Man
# Method in brief: as §1
# [24] = molecular target: Gal(b1-4)GlcNAc(b1-2)Man(a1-3)Man(b1-4)GlcNAc(b1-4)GlcNAc
# Method in brief: as §1
# [25] = molecular target: Gal(b1-4)GlcNAc(b1-2)Man(a1-3)[Gal(b1-4)GlcNAc(b1-2)Man(a1-6)]Man(b1-4)GlcNAc(b1-4)GlcNAc
# Method in brief: as §1
# [26] = molecular target: Gal(b1-4)GlcNAc(b1-2)Man(a1-3)[Gal(b1-4)GlcNAc(b1-2)Man(a1-6)]Man(b1-4)GlcNAc(b1-4)[Fuc(a1-6)]GlcNAc
# Method in brief: as §1
# [27] = molecular target: Gal(b1-4)GlcNAc(b1-2)Man(a1-3)[Gal(b1-4)GlcNAc(b1-2)Man(a1-6)][Gal(b1-4)GlcNAc(b1-4)]Man(b1-4)GlcNAc(b1-4)[Fuc(a1-6)]GlcNAc
# Method in brief: as §1
# [28] = molecular target: Gal(b1-4)GlcNAc(b1-2)Man(a1-3)[Gal(b1-4)GlcNAc(b1-2)Man(a1-6)][GlcNAc(b1-4)]Man(b1-4)GlcNAc(b1-4)[Fuc(a1-6)]GlcNAc
# Method in brief: as §1
# [29] = molecular target: Gal(b1-4)GlcNAc(b1-2)Man(a1-3)[GlcNAc(b1-2)Man(a1-6)]Man(b1-4)GlcNAc(b1-4)GlcNAc
# Method in brief: as §1
# [30] = molecular target: Gal(b1-4)GlcNAc(b1-2)Man(a1-3)[GlcNAc(b1-4)][Gal(b1-4)GlcNAc(b1-2)Man(a1-6)]Man(b1-4)GlcNAc(b1-4)GlcNAc
# Method in brief: as §1
# [31] = molecular target: Gal(b1-4)GlcNAc(b1-2)Man(a1-3)[Man(a1-6)]Man(b1-4)GlcNAc(b1-4)GlcNAc
# Method in brief: as §1
# [32] = molecular target: Gal(b1-4)GlcNAc(b1-2)Man(a1-6)Man(b1-4)GlcNAc(b1-4)GlcNAc
# Method in brief: as §1
binder,measurement,setting,value
B1,glycan array binding signal (z-score),[1],-0.145
same,glycan array binding signal (z-score),[2],2.13
same,glycan array binding signal (z-score),[3],0.884
same,glycan array binding signal (z-score),[4],0.383
same,glycan array binding signal (z-score),[5],-0.548
same,glycan array binding signal (z-score),[6],-0.376
same,glycan array binding signal (z-score),[7],-0.605
same,glycan array binding signal (z-score),[8],-0.506
same,glycan array binding signal (z-score),[9],1.12
same,glycan array binding signal (z-score),[10],-0.007
same,glycan array binding signal (z-score),Gal(b1-3)GlcNAc6S,-0.269
same,glycan array binding signal (z-score),[11],-0.37
same,glycan array binding signal (z-score),[12],0.558
same,glycan array binding signal (z-score),[13],-0.222
same,glycan array binding signal (z-score),[14],-0.532
same,glycan array binding signal (z-score),[15],-0.26
same,glycan array binding signal (z-score),[16],2.52
same,glycan array binding signal (z-score),[17],-0.362
same,glycan array binding signal (z-score),[18],-0.016
same,glycan array binding signal (z-score),[19],-0.392
same,glycan array binding signal (z-score),[20],0.899
same,glycan array binding signal (z-score),Gal(b1-4)Gal,-0.214
same,glycan array binding signal (z-score),[21],-0.994
same,glycan array binding signal (z-score),[22],-0.537
same,glycan array binding signal (z-score),Gal(b1-4)Glc,-1.15
same,glycan array binding signal (z-score),Gal(b1-4)Glc6S,0.19
same,glycan array binding signal (z-score),Gal(b1-4)GlcNAc,-0.292
same,glycan array binding signal (z-score),[23],-0.076
same,glycan array binding signal (z-score),Gal(b1-4)GlcNAc(b1-2)Man,0.284
same,glycan array binding signal (z-score),[24],-0.289
same,glycan array binding signal (z-score),[25],-0.175
same,glycan array binding signal (z-score),[26],0.15
same,glycan array binding signal (z-score),[27],-1.75
same,glycan array binding signal (z-score),[28],-0.729
same,glycan array binding signal (z-score),[29],-0.13
same,glycan array binding signal (z-score),[30],-1.47
same,glycan array binding signal (z-score),[31],1.16
same,glycan array binding signal (z-score),[32],-0.287

# Two records drawn at random from those above:
binder,measurement,setting,value
B1,glycan array binding signal (z-score),[21],-0.994
same,glycan array binding signal (z-score),Gal(b1-3)GlcNAc6S,-0.269

# Reference: the supplement of paper PMC8728848
